Test results: patent publication US20160287536A1, “Composition” (THE UNIVERSITY OF NOTTINGHAM, priority 2013, published 2016)

Columns and labels:
α2-adrenoceptor = experiment: Saturation radioligand binding of [^3H]-RX821002 to sheep anorectal tissue membranes; details: sheep vascular tissues
α1-adrenoceptor = experiment: Saturation radioligand binding of [^3H]-prazosin to sheep anorectal tissue membranes; details: sheep vascular tissues

COC1(C2=NCCN2)COc2ccccc2O1 (centres unmarked) [[^3H]-RX821002, 2-(2-methoxy-1,4-benzodioxan-2-yl)-2-imidazoline]
difference in Kd between artery and vein (α2-adrenoceptor): about 5 fold

COc1cc2nc(N3CCN(C(=O)c4ccco4)CC3)nc(N)c2cc1OC [[^3H]-prazosin]
difference in Kd between artery and vein (α1-adrenoceptor): 2-3 fold
